PMC10145941
No constants are given. Whether binding was seen depends on the method and setting. In cells and extracts the contact can be indirect. Some results given as binding are weak or reduced against the parent protein; the word gives no strength.

By UniProt entry, the sequences of proteins in these tests, tags left out. Residues count along the entry.
UniProt Q14315: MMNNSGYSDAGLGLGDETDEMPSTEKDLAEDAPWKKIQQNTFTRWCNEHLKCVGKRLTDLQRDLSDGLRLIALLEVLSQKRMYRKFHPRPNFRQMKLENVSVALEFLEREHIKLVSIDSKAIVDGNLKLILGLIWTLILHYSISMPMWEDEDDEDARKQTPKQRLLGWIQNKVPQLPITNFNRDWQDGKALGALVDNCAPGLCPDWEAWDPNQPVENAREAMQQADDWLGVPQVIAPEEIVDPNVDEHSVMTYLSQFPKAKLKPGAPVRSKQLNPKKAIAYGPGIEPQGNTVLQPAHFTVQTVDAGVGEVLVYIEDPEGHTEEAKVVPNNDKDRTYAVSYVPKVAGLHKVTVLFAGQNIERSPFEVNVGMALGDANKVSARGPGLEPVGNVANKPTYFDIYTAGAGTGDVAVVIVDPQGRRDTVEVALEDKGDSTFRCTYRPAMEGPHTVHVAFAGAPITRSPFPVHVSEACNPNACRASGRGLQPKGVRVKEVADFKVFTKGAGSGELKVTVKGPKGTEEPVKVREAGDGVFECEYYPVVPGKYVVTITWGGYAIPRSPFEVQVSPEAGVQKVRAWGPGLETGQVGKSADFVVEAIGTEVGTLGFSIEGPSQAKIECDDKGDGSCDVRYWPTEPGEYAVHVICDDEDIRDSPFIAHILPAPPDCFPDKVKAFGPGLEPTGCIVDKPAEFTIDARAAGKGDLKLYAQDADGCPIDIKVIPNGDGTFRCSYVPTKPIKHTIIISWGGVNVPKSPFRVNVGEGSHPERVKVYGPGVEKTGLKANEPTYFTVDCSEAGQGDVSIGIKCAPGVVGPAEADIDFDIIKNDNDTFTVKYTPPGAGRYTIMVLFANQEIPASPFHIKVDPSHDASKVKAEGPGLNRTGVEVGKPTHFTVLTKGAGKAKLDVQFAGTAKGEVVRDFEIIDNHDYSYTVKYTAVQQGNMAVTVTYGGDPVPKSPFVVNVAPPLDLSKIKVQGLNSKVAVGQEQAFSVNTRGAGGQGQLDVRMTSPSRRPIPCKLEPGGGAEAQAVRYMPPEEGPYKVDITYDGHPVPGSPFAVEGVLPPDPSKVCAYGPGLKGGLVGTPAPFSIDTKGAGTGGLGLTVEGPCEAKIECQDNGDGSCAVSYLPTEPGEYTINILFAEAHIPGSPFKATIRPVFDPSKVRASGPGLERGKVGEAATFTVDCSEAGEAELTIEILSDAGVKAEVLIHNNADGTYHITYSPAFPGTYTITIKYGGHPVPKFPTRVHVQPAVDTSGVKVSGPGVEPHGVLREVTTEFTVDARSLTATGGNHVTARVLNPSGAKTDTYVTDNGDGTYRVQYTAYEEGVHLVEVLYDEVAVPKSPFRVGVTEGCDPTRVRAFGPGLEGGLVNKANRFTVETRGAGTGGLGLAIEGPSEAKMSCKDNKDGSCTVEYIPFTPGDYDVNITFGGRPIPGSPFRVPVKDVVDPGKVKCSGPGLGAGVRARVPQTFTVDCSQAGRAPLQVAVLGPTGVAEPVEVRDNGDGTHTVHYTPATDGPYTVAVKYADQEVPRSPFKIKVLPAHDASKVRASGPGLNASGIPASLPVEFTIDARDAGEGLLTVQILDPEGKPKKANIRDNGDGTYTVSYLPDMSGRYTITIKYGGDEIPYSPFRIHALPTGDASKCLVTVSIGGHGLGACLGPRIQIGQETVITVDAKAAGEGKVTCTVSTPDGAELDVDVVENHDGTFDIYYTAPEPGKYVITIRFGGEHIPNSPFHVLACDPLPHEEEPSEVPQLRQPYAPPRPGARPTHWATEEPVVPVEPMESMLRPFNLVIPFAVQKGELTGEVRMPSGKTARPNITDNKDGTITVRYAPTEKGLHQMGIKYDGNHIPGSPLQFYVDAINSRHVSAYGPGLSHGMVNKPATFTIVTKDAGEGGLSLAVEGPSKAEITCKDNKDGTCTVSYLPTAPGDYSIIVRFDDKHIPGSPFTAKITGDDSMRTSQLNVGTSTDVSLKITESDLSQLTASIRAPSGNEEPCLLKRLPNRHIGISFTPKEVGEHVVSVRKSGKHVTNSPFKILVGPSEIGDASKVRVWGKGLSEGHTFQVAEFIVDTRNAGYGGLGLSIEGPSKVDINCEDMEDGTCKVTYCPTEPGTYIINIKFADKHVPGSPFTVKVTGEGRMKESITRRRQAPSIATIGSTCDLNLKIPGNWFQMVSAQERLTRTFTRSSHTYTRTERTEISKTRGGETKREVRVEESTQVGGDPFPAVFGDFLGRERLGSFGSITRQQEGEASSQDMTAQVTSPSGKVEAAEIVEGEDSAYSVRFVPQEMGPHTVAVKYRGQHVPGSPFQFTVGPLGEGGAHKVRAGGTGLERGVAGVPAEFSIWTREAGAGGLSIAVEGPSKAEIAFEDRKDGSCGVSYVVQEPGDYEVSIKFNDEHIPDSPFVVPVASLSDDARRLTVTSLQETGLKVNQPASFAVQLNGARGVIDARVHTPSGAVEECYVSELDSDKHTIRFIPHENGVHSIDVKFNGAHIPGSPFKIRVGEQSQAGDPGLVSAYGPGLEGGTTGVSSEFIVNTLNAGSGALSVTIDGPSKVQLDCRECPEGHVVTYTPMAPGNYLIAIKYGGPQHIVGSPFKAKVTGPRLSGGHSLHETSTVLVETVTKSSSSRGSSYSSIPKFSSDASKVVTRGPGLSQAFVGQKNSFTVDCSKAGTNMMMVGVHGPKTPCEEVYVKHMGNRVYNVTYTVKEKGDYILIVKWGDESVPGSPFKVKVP
UniProt P05161, residues 1-157: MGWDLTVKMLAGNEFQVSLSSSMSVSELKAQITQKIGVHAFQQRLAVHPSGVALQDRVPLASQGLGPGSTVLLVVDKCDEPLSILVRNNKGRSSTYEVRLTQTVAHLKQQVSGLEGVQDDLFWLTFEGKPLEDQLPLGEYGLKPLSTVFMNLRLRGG

Target: filamin-C (human (endogenous in human cardiac myocytes)) (UniProt Q14315)
Experiment: co-IP; Protein G magnetic beads with anti-filamin-C antibody (or isotype IgG), immunoblot for ISG15; human cardiac myocytes with ISG15 siRNA or negative control siRNA for 6 hours, then 500 IU/mL IFN-β for 48 hours

In the case of “IFN-stimulated gene 15 (ISG15 ubiquitin like modifier) (from UniProt P05161 1-157)”, the binding is reported as “binds”.
